Laboratory results reported in patent publication US20250032385A1, “FUNCTIONAL COMPOSITION FOR ALOPECIA COMPRISING CENTIPEDA MINIMA-DERIVED EXTRACT” (priority 2021, published 2025).
For at least one compound, name, drawing or mass did not settle the structure.

Test system: mouse macrophage RAW 264.7 cells
Type: cell-based
Procedure: The amount of NO produced by the cultured RAW 264.7 cells and present in the culture medium was measured using a NO detection kit (cat. No. 21021, Intron) based on the Griess reaction. 100 μl of the culture medium estimated to contain NO was dispensed into 96-well plates, and then 50 μl of N1 buffer (sulfanilamide) was added thereto and reacted at room temperature for 10 minutes. Next, 50 μl of N2 buffer (naphthylethylenediamine) was added thereto and reacted at room temperature for 10 minutes, and then the absorbance was measured at 540 nm. The amount of NO produced was determined using a standard calibration curve obtained using a nitrite standard. In addition, a positive control group (CTL) was treated with only LPS and fresh medium not containing any of the components, and a negative control group was treated with only 100 ng/ml LPS. The measurement results are presented as the average value of three repeated experiments.

`C[C@@H]1C[C@H]2[C@@H]3CCC4=CC(=O)C=C[C@]4(C)[C@@]3(F)[C@@H](O)C[C@]2(C)[C@@]1(O)C(=O)CO` [dexamethasone, reference compound] was tested, and the “NO production as the concentration increased” value (100 ng/ml LPS, 1.25, 2.5, 5 and 10 μg/ml, 24 hours) was “decreased” and the “Reduction rate of NO production compared to CMX” value (FIG. 15 versus FIG. 13) was “somewhat low”.
